Test results from PubChem BioAssay (Tox21).
The inconclusive results got no clear call from the source; some entries with a clear call stand among them for comparison. For part of these data: Potencies beside an inconclusive call are fits to weak or partial responses and may not hold up. The source made the active and inactive calls. Calls come from the whole dose curve; as a rule, active = well fitted activation curve with a large enough effect in the repeat runs; inconclusive = weak or mixed curves; inactive = no such curve, though single readings can be large or run the other way.

By UniProt entry, the sequences of proteins in these tests, tags left out. Where a name states a change or a piece, a line headed by the entry shows the natural chain unless it says otherwise.
UniProt O75469: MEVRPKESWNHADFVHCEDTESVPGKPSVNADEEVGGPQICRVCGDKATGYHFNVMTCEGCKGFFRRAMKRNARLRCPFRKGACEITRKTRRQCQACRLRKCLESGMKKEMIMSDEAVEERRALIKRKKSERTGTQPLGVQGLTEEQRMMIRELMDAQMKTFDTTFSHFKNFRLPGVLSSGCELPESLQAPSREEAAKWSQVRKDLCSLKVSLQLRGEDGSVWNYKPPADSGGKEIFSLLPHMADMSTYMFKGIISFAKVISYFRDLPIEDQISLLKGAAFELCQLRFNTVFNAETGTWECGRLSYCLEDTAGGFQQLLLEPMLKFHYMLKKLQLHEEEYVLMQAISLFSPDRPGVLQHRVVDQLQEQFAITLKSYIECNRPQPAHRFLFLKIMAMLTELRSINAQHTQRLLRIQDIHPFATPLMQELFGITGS
UniProt Q9R1A7: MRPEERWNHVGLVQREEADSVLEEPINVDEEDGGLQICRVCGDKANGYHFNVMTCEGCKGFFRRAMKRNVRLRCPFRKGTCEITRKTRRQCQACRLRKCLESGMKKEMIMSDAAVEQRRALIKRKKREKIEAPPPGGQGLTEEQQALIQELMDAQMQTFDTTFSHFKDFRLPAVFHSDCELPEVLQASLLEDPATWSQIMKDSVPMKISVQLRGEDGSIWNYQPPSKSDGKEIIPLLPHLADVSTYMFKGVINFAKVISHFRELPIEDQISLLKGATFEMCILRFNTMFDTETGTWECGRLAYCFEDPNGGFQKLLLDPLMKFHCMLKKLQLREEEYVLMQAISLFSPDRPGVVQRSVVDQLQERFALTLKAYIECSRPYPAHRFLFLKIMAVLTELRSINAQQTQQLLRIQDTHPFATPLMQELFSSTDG

target: Nuclear receptor subfamily 1 group I member 2 (Homo sapiens) (UniProt O75469); assay: Human pregnane X receptor (PXR) small molecule agonists, qHTS assay (AID 1346982); details: PXR-Luc HepG2, CYP3A4 luciferase reporter, 24 h; series mostly up to 92.4 µM; activation: at the top concentration; note: nearly all actives have a fitted effect of over 35% in size
In short: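 Stable HepG2 line reporting PXR-mediated CYP3A4 expression via luciferase. Treatment: 24 hr with compounds in DMSO at 37 C. Detection: ONE-Glo luminescence.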
% is set by controls: 0 for no effect and ±100 for the full control effect; potency is the fitted concentration of half-maximal effect.

Compound | Potency | activation
O=S(=O)(O)c1cc(S(=O)(=O)O)c2c(N=Nc3ccccc3)c(O)ccc2c1 | inactive | 
CCOC(=O)Cn1cccc1-c1nc(-c2ccc(OC)cc2)c(-c2ccc(OC)cc2)s1 | inconclusive: 23.7 µM [activator, partial curve] | 
CCN(CC)c1ccc(C(=C2C=CC(=[N+](CC)CC)C=C2)c2cc(S(=O)(=O)O)ccc2S(=O)(=O)[O-])cc1 |  | inactive: -29.5% [at 42.5 µM]
Cc1cc(O)ccc1O | inconclusive: 69.4 µM [activator, single point] | 
Cc1ccc(N/N=c2\c(=O)cc/c(=N\Nc3ccc(S(=O)(=O)O)cc3)c2=O)c(C)c1 | inconclusive: 34.4 µM [activator, partial curve, poor fit] | 
CCOC(=O)c1ccc(OCCN2C[C@H](O)[C@@H](O)[C@H](O)[C@H]2CO)cc1 |  | inactive: -2.05% [at 42.5 µM]
O=Cc1ccccc1O | inconclusive: 68.6 µM [activator, single point] | 
COc1ccc2sc(C(=O)Nc3nnn[nH]3)c(OC(C)C)c2c1 | inconclusive: 54.3 µM [activator, single point] | 
O=[N+]([O-])c1ccc(Nc2ccc(Nc3ccccc3)c(S(=O)(=O)O)c2)c([N+](=O)[O-])c1 | inconclusive: 68.6 µM [activator, partial curve, poor fit] | 
CC(=O)Nc1cc(S(=O)(=O)O)cc2cc(S(=O)(=O)O)c(N=Nc3ccccc3)c(O)c12 |  | inactive: 1.5%
Cc1cc(C)nc(NS(=O)(=O)c2ccc(N)cc2)n1 | inconclusive: 55.1 µM [activator, partial curve, poor fit] | 

Exported with each value named: two of the compounds above.
CCN(CC)c1ccc(C(=C2C=CC(=[N+](CC)CC)C=C2)c2cc(S(=O)(=O)O)ccc2S(=O)(=O)[O-])cc1
  activation: inactive: -29.5% [at 42.5 µM]
O=[N+]([O-])c1ccc(Nc2ccc(Nc3ccccc3)c(S(=O)(=O)O)c2)c([N+](=O)[O-])c1
  Potency: inconclusive: 68.6 µM [activator, partial curve, poor fit]

target: Nuclear receptor subfamily 1 group I member 2 (Rattus norvegicus) (UniProt Q9R1A7); assay: Rat pregnane X receptor (rPXR) activation by small molecules, qHTS assay (AID 1346983); details: rPXR luciferase reporter cells, One-Glo luminescence, 24 h; max activation: hits give high values; note: nearly all actives have a fitted effect of over 20% in size
In short: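 Cell-based rPXR activation assay: rPXR cells, 2,000 per well, rested 5hr at 37 C, then exposed to compounds in DMSO for 24 hr at 37 C. Luciferase activity read by One-Glo luminescence after 30 min at room temperature.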

Compound | Potency | max activation
C[C@@H]1C[C@H]2[C@@H]3C[C@H](F)C4=CC(=O)C(Cl)=C[C@]4(C)[C@@]3(F)[C@@H](O)C[C@]2(C)[C@@]1(O)C(=O)CO | active: 0.1 µM | 
C[C@@H]1C[C@H]2[C@@H]3C[C@H](F)C4=CC(=O)C=C[C@]4(C)[C@@]3(F)[C@@H](O)C[C@]2(C)[C@@]1(O)C(=O)CO | active: 1.41 µM | 
CC1=CCC(C(C)(C)O)CC1 (stereo not given) |  | inactive: -1.16%
